Publication PMC8572801
Construct, isoform or probe ends are uncertain for at least one entry. At least one result comes from cells or an extract, where the contact may be indirect. Protein sequences can lack the tags named with them.

Biological target: T1, ELK1 (UniProt P19419)
T1 sequence (looked up, limits assumed): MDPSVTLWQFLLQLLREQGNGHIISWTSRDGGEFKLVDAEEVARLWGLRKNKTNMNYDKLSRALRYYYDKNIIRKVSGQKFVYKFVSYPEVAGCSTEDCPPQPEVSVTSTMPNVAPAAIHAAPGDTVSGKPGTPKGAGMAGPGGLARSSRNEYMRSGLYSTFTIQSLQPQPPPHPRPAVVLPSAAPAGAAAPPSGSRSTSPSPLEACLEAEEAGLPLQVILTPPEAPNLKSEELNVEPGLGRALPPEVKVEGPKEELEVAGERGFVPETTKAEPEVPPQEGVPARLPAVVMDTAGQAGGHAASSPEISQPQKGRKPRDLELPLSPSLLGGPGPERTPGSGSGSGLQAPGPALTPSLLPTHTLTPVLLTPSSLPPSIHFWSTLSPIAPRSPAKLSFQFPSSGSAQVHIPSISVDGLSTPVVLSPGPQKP
Assay: EMSA supershift
Settings: anti-ELK1 antibody, nuclear extract, complex more abundant with CR than WT cell extract; LightShift Chemiluminescent EMSA Kit (Thermo Fisher) with nuclear extracts; pH and temperature not stated; protein in an extract; label: 5' biotin

Sequence: GACGGACGCACTTCCGGCGGATGTGGGGGCCAGCCCTCGGAAACGGAAGTGAGCGGC (double strand) [Biotin-POMP-P wt-F probe]
- binding result: binds
